The results in this text go back to article PMC4920147.

The exact form of at least one protein or probe is not confirmed. Where cells or extracts were used, other partners may take part.

The series deals with RelA (p65) + NFκB p50. Nature of the series: EMSA supershift. The note with it: TNFα-treated E11 nuclear extract; not stated; EMSA as in Basak et al., 2007; protein in an extract.

For the sequence “CTGTGGGAAAGGGGTTTTCCCAGCAGTCAGG (double strand) [CD80 promoter probe]”, the binding result is recorded as “binds”.
